Source: ChEMBL document CHEMBL3988442, “University of Dundee, Small-Polar-MMV Screening Library” (2021).

Sequences of proteins named here, by UniProt entry; tags and fusion partners are left off. Residues count along the entry.
UniProt A4I591, 1-473: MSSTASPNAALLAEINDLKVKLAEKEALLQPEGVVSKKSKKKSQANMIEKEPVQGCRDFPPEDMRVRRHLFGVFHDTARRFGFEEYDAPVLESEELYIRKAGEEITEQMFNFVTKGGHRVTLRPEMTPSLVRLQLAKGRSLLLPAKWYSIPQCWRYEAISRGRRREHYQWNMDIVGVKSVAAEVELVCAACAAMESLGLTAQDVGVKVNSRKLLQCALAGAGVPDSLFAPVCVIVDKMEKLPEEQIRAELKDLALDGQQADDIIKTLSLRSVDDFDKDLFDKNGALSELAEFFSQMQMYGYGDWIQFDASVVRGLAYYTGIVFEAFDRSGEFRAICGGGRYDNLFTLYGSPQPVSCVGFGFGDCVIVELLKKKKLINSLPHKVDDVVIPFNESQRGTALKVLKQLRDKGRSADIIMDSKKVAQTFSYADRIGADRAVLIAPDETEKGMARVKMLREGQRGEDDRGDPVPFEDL
UniProt P9WPC5, whole entry: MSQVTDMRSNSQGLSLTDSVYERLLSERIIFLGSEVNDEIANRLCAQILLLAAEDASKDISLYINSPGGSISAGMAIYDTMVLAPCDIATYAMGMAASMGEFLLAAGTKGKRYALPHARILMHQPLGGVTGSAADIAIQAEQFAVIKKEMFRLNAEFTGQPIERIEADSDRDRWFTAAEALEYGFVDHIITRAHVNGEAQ
UniProt P9WPC3, whole entry partner: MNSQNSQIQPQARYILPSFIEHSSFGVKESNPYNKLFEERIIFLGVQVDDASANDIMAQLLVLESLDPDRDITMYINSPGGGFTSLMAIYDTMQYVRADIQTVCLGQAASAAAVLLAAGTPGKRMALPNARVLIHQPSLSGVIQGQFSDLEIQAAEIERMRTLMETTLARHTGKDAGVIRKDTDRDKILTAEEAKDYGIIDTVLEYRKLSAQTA

Results are given as percent effect.
The controls that fix the scale are not given in the record; negative values are as filed.
The compounds are a random part of those screened.
Two or more numbers in one place are separate tests of the same structure; such repeats can differ widely.

A: 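Histidine-tRNA ligase, Leishmania infantum (UniProt A4I591). Enzyme assay of histidyl-tRNA synthetase; the read-out is not stated. Tested at 30 µM. Direction is inferred from retests: higher values go with stronger inhibition. The assay is labelled LdHisRS but filed under L. infantum. About 69,000 compounds were tested under these conditions; 0.6% (about 410) showed 50% or more at least once.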
B: 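Assay of Toxoplasma gondii numbers, read through their beta-galactosidase reporter with a colour substrate. Concentration: 10 µM. Higher reads as fewer parasites (inferred from which compounds were picked for retests). Size under these conditions: about 67,000 compounds, about 260 of them at 50% or above in at least one test.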
C: 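Protease assay of ClpP1P2, read by the AMC dye that it sets free. Target: ClpP1P2, Mycobacterium tuberculosis (UniProt P9WPC5 and UniProt P9WPC3). Concentration: 50 µM. Higher reads as stronger inhibition, judged from the few compounds that gave an IC50. Most other retested compounds had strongly negative values. About 69,000 compounds were tested under these conditions; 0.015% (about 10) showed 50% or more at least once.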
D: 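Whole-parasite assay of Trypanosoma brucei over 72 hours; the read-out is not stated. Concentration: 30 µM. Higher reads as stronger inhibition (inferred: compounds with an IC50 in retests scored well above the rest). Values scatter widely below zero; nearly all retest evidence comes from the higher of the two concentrations used. Of about 64,000 compounds tested this way, about 940 (1.5%) reached 50% or more in at least one test.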
E: 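Cell assay of Leishmania donovani living inside macrophages; the read-out is not stated. Concentration: 30 µM. The record gives no direction; compounds that gave an IC50 in retests scored well above the rest, so higher reads as stronger inhibition. Of about 69,000 compounds tested this way, about 1,000 (1.5%) reached 50% or more in at least one test.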

For CNC(=O)NC(C)c1c(F)cccc1Cl (stereo not given) the result was A: 14.81%; B: 9.717%; C: 1.011%; D: -25.42%; E: -84.02%. Result for Cc1csc2c(C3CCCN(C(=O)Cn4cncn4)C3)nc(C)n12 (stereo not given) was A: 4.286%; B: 0.1502%; C: -15.58%; D: -16.17%; E: 25.28%. For [H][C@@]12CN(c3nc4c(cc3C(N)=O)CCC4)C[C@]1([H])N(C1CCCC1)C(=O)O2 the result was B: 7.247%; D: -17.35%; E: 13.63%. Cc1ccc(-n2ncc3c2CCCC3N)cc1C (stereo not given) read A: 13.33%; B: 16.25%; C: -1.906%; D: -37.31%; E: 72.93%. COc1ccc(Oc2ncccc2NC(=O)N2CCOCC2)cc1 read A: 8%; B: 5.03%; C: 4.849%; D: -21.64%; E: 20.23%. Result for CC(C)c1noc(CN(Cc2ccc(F)cc2)C2CC2)n1 was A: 1.176%; B: -8.189%; C: -17.15%; D: -23.3%; E: -14.51%.

For Cc1sc2nc(C(F)(F)F)nc(N3CCC(NS(C)(=O)=O)CC3)c2c1C the result was A: 23.23%; B: -7.747%; C: 7.714%; D: -8.9%; E: -44.25%. Result for CC1CCCCN1C(=O)c1ccc(Br)s1 (stereo not given) was A: 20.59%; B: 5.582%; C: 15.44%; D: -6.524%; E: 14.34%. Cc1cccc(C(=O)NC(CN2CCCC2=O)c2ccccc2)n1 (stereo not given) gave A: 18.4%; B: -23.85%; C: -3.652%; D: -18.36%; E: 1.305%. For c1ncn(CC2CCCN(Cc3nnc(C4CC4)o3)C2)n1 (stereo not given) the result was A: -2.778%; B: -0.313%; C: -8.031%; D: -14.21%; E: 8.649%. Result for O=C(O)C(F)(F)F.[H][C@@]12C[C@@H](C(=O)N3CCCC3)C[C@@]1([H])N(CC1CC1)CCO2 was B: 10.58%; D: -30.49%; E: -6.553% and -3.315%. CC(C)c1cc(C(=O)N2CCNCC2C(=O)NCc2ccncc2)on1 (stereo not given) read A: 13.68%; B: 5.542%; C: -12.87%; D: 1.643%; E: 16.97%.

Cc1cc(Cl)ccc1C(=O)N[C@H]1CN(S(C)(=O)=O)C[C@@H]1C1CC1 gave A: -6.579%; B: 2.378%; C: -9.877%; D: -89.93%; E: -23.02%. COC(=O)c1cccc(C(=O)N2CCN(c3ccccc3F)CC2)n1 gave A: 12.62%; B: 0.2217%; C: 0.4389%; D: -4.429%; E: 11.14%. For O=C(NC1CCc2nccn2C1)c1ccc(OCC2CC2)nc1 (stereo not given) the result was A: 11.61%; B: 1.661%; C: -0.9626%; D: -37.51%; E: -47.09%. With O=C(CCn1ccnc1)N1CC[C@H](Oc2cccc(F)c2)[C@@H](O)CC1 the screen gave A: 8.392%; B: 8.57%; C: 3.311%; D: -20.84%; E: -38.04%. With COCCCn1ccc(NC(=O)NCCc2cccnc2)n1 the screen gave A: 5.714%; B: -25.43%; C: -0.684%; D: -23.9%; E: 8.215%. For COc1cc(C(=O)NS(=O)(=O)c2cc(Cl)sc2Cl)ccc1OC(F)F the result was A: 9.821%; B: 2.791%; C: 5.181%; D: 16.65%; E: 13.28%.

Once more, the final 2:

{"compound": "COCCCn1ccc(NC(=O)NCCc2cccnc2)n1", "A": 5.714, "B": -25.43, "C": -0.684, "D": -23.9, "E": 8.215}
{"compound": "COc1cc(C(=O)NS(=O)(=O)c2cc(Cl)sc2Cl)ccc1OC(F)F", "A": 9.821, "B": 2.791, "C": 5.181, "D": 16.65, "E": 13.28}